Laboratory results taken from patent publication US20220220206A1, “TREATING CHRONIC LIVER DISEASE” (Mayo Foundation for Medical Education and Research, priority 2019, published 2022).

System: FFC diet-fed C57BL/6J mice (diet-induced NASH)
Assay: FFC diet-induced NASH mouse model, VCAM-1 blockade (antibody or AGI-1067)
Type: in vivo
Settings: AGI-1067 25 mg/kg i.p. daily for 15 days, vs vehicle
Source text: C57BL/6J male mice were purchased from Jackson Laboratory (Bar Harbor, Me.). Mice were housed and bred in a temperature-controlled 12:12-hour light-dark cycle facility with free access to diet. The mice were fed either a chow diet (5053 PicoLab Rodent Diet 20, LabDiet, St Louis, Mo.) or a diet rich in fat, fructose, and cholesterol (FFC) at 8-weeks old for 24 weeks. FFC diet consists of 40% energy as fat (12% saturated fatty acid, 0.2% cholesterol) (AIN-76A Western Diet, TestDiet, St Louis, Mo.), with fructose (23.1 g/L) and glucose (18.9 g/L) in the drinking water. The FFC diet induces steatohepatitis with pronounced hepatocellular ballooning, lipoapoptosis, and progressive fibrosis with a high fidelity to the human NASH histology and metabolic profile. At 20 weeks on the diet, the mice were randomized to receive either anti-VCAM-1 neutralizing antibody (M/K-2.7), (Genetex, GTX14360) or IgG isotype antibody (BE0088, InVivoMAb). […] Total caloric intake at the 3rd week of VCAM-1 antibody treatment and the first week of AGI-1067 treatment was calculated based on the weight of food and drinking water consumption. At the third week of anti-VCAM-1 neutralizing antibody treatment, metabolic parameters, including oxygen consumption, carbon dioxide production, and locomotor activity, were measured using a Comprehensive Lab Animal Monitoring System (CLAMS, Columbus Instruments, OH). […] Blood glucose levels and plasma insulin levels were measured using Assure 4 (Arkray, Edina, Minn.) and Ultra-Sensitive Mouse Insulin enzyme-linked immunosorbent assay (ELISA) kit (Crystal Chem Inc., Downers Grove, Ill.), respectively. Homeostasis model assessment of insulin resistance (HOMA-IR) was calculated by using the following formula: HOMA-IR=26×fasting insulin level (ng/mL)×fasting glucose level (mg/dL)/405. […]
Liver triglyceride levels were measured in mouse liver homogenates. […] Photometric absorbance was read at 570 nm using a Synergy H1 microplate reader (BioTek). Serum alanine aminotransferase (ALT) levels were measured by VetScan2 (Abaxis Veterinary Diagnostics, Union City, Calif.). […]

CC(C)(Sc1cc(C(C)(C)C)c(O)c(C(C)(C)C)c1)Sc1cc(C(C)(C)C)c(OC(=O)CCC(=O)O)c(C(C)(C)C)c1 [AGI-1067, succinobucol]
did not alter: caloric intake | liver to body weight ratio | weight gain
